Assay results from paper PMC7024211, “Antifouling Napyradiomycins from Marine-Derived Actinomycetes Streptomyces aculeolatus” (Marine Drugs, 2020).

system: M. galloprovincialis plantigrade larvae; assay: Mussel plantigrade larvae settlement, 15 h acute exposure assay; type: in vivo
Description: Mussel (M. galloprovincialis) adhesive larvae (plantigrades) were used to assess in vivo the antifouling activity of napyradiomycins (1–12) towards macrofouling. Juvenile mussel aggregates were collected at the intertidal rocky shore during low spring tides, at Memória beach, Matosinhos, Portugal (41°13′59″ N; 8°43′28″ W). At the laboratory, immediately before the bioassays, mussel plantigrade larvae were screened and isolated from the juvenile aggregates using a binocular microscope (Olympus SZX2-ILLT, Hamburg, Germany) and washed with filtered seawater to remove organic debris. Only competent plantigrade larvae (those showing foot exploratory behavior) were selected and used in the exposure bioassays following previously validated procedures. Plantigrades were exposed in 24-well polystyrene plates for 15 h in the darkness at 18 °C. DMSO was used as solvent for crude extracts, fractions and pure compounds stock and working solutions. Working solutions were prepared by successive dilutions of stock solutions in DMSO and then diluted in filtered seawater to obtain the test solutions. DMSO concentration in test solutions was always 0.1%. Four well replicates were used per condition with five larvae per well. Two negative controls, one with ultra-pure water and the other with DMSO 0.1% were included in all bioassays, as well as a positive control with 5 μM CuSO4 (a potent antifouling agent). Anti-settlement bioactivity was determined by the presence/absence of fixed byssal threads produced by each individual larvae for all the conditions tested. […] Chi-square Pearsons goodness-of-fit test was applied to data in order to determine EC50. Significance was considered at p < 0.01 for all analyses, and 95% lower and upper confidence limits [95% LCL; UCL] were presented. Therapeutic ratio (LC50/EC50) was used to evaluate the effectiveness vs. toxicity of compounds [19, 21].

SMILES	LC50/EC50 (therapeutic ratio)
C=C1CCC(Cl)C(C)(C)C1C[C@@]12OC(C)(C)[C@H](Cl)C=C1C(=O)c1c(cc(O)c(C)c1O)C2=O (some centres unmarked) [Napyradiomycin 12, 4-dehydro-4a-dechloro-napyradiomycin A80915A]	12.67
C=C(C)C(O)CC/C(C)=C/C[C@@]12OC(C)(C)[C@H](Cl)C[C@]1(Cl)C(=O)c1c(O)cc(O)cc1C2=O (some centres unmarked) [Napyradiomycin 4, napyradiomycin A2]	1.89
CC(=CCCC(C)=CCC12OC(C)(C)C(Cl)CC1(Cl)C(=O)c1c(O)cc(O)cc1C2=O)CO (centres unmarked) [Napyradiomycin 2, 18-hydroxynapyradiomycin A1]	6.00
CC(C)=CCCC(C)=CCC12OC(C)(C)C(Cl)CC1(Cl)C(=O)c1c(O)cc(O)cc1C2=O (centres unmarked) [Napyradiomycin 1, napyradiomycin A1]	18.3 and 18.32
Cc1c(O)cc2c(c1O)C(=O)C1(Cl)CC(Cl)C(C)(C)OC1(CC1C(C)(O)CCC(Cl)C1(C)C)C2=O (centres unmarked) [Napyradiomycin 10, napyradiomycin A80915C]	117.3 and 117.28

“And” between values parts separate entries of the source, which are not always exact repeats. Equal entries are not always repeated.
